Data from PMC2386837.
No constants are given. Whether binding was seen depends on the method and setting. In cells and extracts the contact can be indirect. Some binding calls cover weakened binding; strength is not graded here. Where a sequence is shown, tags or fusion partners need not be part of it. Blank lines part the entries; values can stand above or below the binder they belong to.

Tests used:
HA-Draf-N (Drosophila) = molecular target: T1, HA-Draf-N (Drosophila) (UniProt P11346); test: co-IP; S2 cells cotransfected with V5-tagged Draf-C variants with or without HA-Draf-N; IP with anti-HA, blot with anti-V5; three independent western blots quantified
T1 sequence: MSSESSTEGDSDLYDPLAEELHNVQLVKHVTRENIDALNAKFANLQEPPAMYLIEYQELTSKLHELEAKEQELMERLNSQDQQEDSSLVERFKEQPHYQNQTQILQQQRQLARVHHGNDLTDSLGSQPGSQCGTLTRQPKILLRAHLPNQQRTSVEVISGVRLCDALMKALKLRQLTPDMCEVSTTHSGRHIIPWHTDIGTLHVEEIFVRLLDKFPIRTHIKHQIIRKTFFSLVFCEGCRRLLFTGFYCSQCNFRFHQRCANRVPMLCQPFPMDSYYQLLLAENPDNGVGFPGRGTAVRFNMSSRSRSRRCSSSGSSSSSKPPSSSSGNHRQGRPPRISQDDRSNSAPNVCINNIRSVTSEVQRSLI

[1] = molecular target: T2, V5-tagged Draf-C^WT (Drosophila) (UniProt P11346); test: co-IP; S2 cells cotransfected with Src64B^act and V5-tagged Draf (FL), Draf-N or Draf-C; IP with anti-V5, blot with anti-Src64B
T2 sequence: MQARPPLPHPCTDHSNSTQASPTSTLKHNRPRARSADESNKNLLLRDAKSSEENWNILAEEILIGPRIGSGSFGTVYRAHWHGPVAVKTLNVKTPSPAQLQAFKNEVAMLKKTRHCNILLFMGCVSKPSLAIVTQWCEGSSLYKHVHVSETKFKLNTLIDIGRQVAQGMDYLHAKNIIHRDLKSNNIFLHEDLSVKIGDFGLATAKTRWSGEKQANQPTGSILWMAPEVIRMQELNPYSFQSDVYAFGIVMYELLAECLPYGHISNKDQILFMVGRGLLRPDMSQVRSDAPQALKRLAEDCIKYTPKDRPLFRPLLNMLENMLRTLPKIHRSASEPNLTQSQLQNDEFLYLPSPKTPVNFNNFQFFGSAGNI

[2] = molecular target: T3, V5-tagged full-length Draf (Drosophila) (UniProt P11346); test: as above
T3 sequence: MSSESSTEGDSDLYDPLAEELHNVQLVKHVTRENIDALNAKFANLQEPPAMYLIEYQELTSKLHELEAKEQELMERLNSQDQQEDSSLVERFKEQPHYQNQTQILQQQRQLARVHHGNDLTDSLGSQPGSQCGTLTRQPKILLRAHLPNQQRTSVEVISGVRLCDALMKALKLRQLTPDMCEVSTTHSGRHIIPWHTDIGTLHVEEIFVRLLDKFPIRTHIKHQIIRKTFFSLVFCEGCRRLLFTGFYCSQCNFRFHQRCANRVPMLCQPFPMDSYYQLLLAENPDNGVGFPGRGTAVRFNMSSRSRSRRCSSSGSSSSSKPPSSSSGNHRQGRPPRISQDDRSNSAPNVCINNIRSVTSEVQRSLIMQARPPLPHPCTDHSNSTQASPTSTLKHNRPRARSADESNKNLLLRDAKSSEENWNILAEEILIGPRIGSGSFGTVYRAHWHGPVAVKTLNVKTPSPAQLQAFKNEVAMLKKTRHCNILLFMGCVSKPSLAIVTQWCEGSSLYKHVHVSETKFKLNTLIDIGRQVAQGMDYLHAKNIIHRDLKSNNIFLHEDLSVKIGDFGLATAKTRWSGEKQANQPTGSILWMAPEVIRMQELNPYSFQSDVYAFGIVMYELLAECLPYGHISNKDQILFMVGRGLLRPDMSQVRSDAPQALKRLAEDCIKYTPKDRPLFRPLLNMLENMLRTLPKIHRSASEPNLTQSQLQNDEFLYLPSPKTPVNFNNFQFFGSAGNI

[3] = molecular target: T4, V5-tagged Draf-N (Drosophila) (UniProt P11346); test: as above
T4 sequence: T1 sequence

[4] = molecular target: T5, V5-tagged Src64B^act (Drosophila) (UniProt P00528); test: co-IP; S2 cells transfected with V5-tagged Src64B^act or Src64B^KR; IP with anti-V5; endogenous Draf detected in the precipitate
T5 sequence: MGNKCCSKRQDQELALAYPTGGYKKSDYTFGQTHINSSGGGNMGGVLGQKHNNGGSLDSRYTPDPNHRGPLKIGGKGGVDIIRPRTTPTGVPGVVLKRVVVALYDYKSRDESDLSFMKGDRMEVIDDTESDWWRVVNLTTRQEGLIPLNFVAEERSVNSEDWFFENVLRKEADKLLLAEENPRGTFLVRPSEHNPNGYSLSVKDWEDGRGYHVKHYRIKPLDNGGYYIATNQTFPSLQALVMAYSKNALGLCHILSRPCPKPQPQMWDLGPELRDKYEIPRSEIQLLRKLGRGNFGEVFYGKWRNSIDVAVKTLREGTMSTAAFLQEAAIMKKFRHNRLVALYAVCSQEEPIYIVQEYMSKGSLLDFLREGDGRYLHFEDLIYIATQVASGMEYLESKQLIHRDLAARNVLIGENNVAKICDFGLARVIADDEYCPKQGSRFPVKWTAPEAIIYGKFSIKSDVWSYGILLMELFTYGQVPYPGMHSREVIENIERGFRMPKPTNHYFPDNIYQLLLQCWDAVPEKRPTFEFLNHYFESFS

binding (HA-Draf-N (Drosophila)): binds
B1: V5-tagged Draf-C^WT (domain or fragment, UniProt P11346 368-739)
chain: T2 sequence

binding [1]: binds weakly
binding [2]: binds
binding [3]: binds
B2: Src64B^act (activated Src64B, non-tagged) (domain or fragment, UniProt P00528 1-540)
chain: T5 sequence

binding [4]: binds
B3: endogenous Draf (protein, UniProt P11346 1-739)
chain: T3 sequence
